System: hind limb muscles of adult Sprague-Dawley rats
Assay: In vivo biocompatibility and degradation, macroscopic and IHC, incision closure
Settings: for Degree of degradation: one value per rat
Source text: Small surgical incisions (0.2 cm in depth, 1 cm in length) were made in both hind limb muscles of adult Sprague-Dawley rats (n=4). One incision was closed by 1 drop of various cyanoacrylate formulations dispensed through a surgical syringe needle (25 G) and the other was closed by absorbable suture (VICRYL, Ethicon) with and without injection of equivalent volumes of PEG included in cyanoacrylate formulations as controls. In order to ensure proper identification of the injury sites, a single non-absorb-able suture was placed adjacent to each repaired incision site.
At 7 days, 4 weeks, and 12 weeks post-surgery, tissue explants containing the repaired incision sites and surrounding muscle tissue were retrieved. The explants were photographed to document the macroscopic tissue response to the various cyanoacrylate formulations and suture controls (FIGS. 3A-3H (7 days), 4A-4H (4 weeks), and 5A-5H (12 weeks)). Identification of specific cells types associated with wound healing and inflammation was performed by histological sectioning and immunohistochemical (IHC) staining. Tissue explants were embedded in Optimal cutting temperature (OCT) compound and sectioned perpendicular to the surface of the repaired muscle tissue. Sections ([…] thick) were transferred to glass microscope slides, fixed with methanol, permeabilized with 0.025% Triton in PBS solution, and stained with primary antibodies directed against vimentin (fibroblasts) and rat macrophages, and Alexa-594 conjugated secondary antibodies. DAPI mounting media was used to counterstain all cellular nuclei. Samples were imaged by fluorescence microscopy (FIGS. 6A-6P, 7A-7P, 8A-8P). Specific cell types are identified in red, sutures and various cyanoacrylate adhesives are shown in green, and cellular nuclei are shown in blue. […]

Row | Molecule | Degree of degradation (7 days post-surgery) | in vivo degradation (macroscopic) (4 and 12 weeks) | Degree of degradation (4 weeks post-surgery)
1 | methoxyisopropylcyanoacrylate [MCA] | no | – | –
2 | C=C(C#N)C(=O)OCCCCCCCC [OCA, octylcyanoacrylate] | no | minimal degradation | no

— patent publication US9878041B2, “Cyanoacrylate tissue adhesives” (Adhezion Biomedical, LLC, priority 2007, dated 2018)
